According to article PMC9124971:
No constants are given. Whether binding was seen depends on the method and setting. Binding seen in cells or lysates may run through a third protein. A yes stands for co-enrichment or nearness to the bait. Other partners may have been found.

By UniProt entry, the sequences of proteins in these tests, tags left out.
UniProt P48432: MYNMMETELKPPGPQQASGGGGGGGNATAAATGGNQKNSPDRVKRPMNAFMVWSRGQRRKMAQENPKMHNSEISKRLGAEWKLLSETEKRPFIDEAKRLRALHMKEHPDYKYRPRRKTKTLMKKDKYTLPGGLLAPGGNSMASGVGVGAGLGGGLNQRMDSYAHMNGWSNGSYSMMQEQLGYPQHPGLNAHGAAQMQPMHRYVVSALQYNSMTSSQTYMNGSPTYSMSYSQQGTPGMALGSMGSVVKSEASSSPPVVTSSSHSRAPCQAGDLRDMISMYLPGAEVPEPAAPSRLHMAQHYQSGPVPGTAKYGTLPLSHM
UniProt Q6PDQ2: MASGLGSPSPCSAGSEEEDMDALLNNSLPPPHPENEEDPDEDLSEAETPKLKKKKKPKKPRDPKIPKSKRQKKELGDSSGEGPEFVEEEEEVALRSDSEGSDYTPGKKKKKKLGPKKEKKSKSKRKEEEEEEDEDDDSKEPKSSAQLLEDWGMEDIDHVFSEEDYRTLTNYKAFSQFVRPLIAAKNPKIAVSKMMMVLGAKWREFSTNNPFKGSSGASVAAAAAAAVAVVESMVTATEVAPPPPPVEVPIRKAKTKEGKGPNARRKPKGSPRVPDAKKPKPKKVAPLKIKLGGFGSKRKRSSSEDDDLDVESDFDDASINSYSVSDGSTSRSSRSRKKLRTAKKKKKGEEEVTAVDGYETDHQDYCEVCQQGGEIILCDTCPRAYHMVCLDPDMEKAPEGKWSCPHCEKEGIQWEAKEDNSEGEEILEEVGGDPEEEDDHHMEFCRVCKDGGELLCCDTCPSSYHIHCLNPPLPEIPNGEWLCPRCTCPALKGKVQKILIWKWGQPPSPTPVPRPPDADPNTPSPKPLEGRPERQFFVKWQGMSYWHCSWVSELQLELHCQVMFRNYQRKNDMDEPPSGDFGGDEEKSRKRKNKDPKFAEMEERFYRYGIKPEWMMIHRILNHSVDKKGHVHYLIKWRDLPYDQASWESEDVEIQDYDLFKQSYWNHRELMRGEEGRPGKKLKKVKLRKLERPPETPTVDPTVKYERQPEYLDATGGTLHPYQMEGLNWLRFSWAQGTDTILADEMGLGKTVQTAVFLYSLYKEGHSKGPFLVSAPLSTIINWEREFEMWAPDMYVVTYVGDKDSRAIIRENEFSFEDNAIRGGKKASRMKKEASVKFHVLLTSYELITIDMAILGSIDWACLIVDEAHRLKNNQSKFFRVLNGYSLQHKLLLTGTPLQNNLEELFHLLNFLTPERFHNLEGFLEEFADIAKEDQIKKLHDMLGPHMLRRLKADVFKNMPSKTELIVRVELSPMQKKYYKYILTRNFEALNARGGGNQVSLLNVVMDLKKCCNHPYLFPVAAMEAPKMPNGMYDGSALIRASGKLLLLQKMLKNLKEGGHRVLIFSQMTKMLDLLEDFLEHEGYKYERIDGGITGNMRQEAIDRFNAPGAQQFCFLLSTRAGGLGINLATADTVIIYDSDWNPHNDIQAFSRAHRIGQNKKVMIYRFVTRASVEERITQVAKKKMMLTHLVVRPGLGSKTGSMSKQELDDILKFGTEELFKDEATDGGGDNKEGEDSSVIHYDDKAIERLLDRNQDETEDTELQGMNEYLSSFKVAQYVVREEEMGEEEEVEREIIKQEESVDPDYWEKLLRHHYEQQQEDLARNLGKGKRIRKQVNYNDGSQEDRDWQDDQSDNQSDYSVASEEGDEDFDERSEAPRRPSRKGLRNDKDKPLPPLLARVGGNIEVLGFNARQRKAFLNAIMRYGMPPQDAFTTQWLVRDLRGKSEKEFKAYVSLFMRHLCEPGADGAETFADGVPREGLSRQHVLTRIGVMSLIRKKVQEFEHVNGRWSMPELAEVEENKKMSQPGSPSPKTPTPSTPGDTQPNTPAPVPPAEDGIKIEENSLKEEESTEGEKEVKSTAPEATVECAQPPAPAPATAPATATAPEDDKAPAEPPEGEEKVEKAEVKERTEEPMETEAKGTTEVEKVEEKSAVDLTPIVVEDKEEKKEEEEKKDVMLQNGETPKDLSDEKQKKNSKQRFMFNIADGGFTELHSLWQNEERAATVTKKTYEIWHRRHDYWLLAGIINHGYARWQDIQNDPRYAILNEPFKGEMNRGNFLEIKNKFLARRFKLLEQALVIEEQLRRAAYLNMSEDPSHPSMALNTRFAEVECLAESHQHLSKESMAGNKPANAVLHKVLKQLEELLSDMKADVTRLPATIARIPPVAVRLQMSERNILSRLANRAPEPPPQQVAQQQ
UniProt P58463: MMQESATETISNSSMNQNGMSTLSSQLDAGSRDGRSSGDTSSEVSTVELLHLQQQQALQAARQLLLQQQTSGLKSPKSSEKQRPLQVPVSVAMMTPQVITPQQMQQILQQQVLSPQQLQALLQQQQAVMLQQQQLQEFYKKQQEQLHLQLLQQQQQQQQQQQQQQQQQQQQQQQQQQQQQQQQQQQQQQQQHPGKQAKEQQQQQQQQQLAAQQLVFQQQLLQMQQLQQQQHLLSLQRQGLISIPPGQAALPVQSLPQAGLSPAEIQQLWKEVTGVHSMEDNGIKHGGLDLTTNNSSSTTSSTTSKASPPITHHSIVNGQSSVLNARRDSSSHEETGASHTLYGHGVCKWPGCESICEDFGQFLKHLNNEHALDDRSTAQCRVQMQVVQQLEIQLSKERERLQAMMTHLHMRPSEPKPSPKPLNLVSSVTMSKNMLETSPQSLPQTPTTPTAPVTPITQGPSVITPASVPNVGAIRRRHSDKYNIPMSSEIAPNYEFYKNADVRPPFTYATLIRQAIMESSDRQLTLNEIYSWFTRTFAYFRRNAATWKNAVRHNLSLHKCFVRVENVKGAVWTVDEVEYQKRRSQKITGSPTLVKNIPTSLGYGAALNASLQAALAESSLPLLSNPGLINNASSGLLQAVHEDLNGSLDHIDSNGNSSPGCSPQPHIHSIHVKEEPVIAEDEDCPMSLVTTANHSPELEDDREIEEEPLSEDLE

Target: biotinylatable tagged SOX2 (bioSOX2), biotinylated in vivo by birA (mouse) (UniProt P48432)
Assay: affinity purification with mass spectrometry; biotinylated SOX2 and associated proteins precipitated with streptavidin magnetic beads from nuclear protein extracts of E18.5 bioSOX2/birA mouse lungs; control mouse lungs as control

| Molecule | binding |
| --- | --- |
| Chromodomain Helicase DNA binding protein 4 (CHD4), endogenous in mouse lung (from UniProt Q6PDQ2 1-1915) | binds |
| Forkhead box protein FOXP2, endogenous in mouse lung (from UniProt P58463 1-714) | binds |
| Forkhead box protein FOXP4, endogenous in mouse lung (protein, UniProt Q9DBY0 1-795) MMVESASETIRSAPSGQNGVGSLSAQADGGGGAGTAGTAPAAGRDASGREAASGGADSNGEMSPAELLHFQQQQALQVARQFLLQQASSLNSPGNNDSKQSASAVQVPVSVAMMSQQMLTPQQMQQILSPPQLQALLQQQQALMLQQLQEYYKKQQEQLHLQLLTQQQAGKQQPKEALGNKQLAFQQQLLQMQQLQQQHLLNLQRQGLVSLQPSQASGPLQALPQAVCPTDLPQLWKGEGAPGQPAEDSGRQEGLDLASTAVTATSFASPPKVSPPLSHHPLPNGQPTVLTSRRDSSSHEETPSSHPLYGHGECKWPGCETLCEDLGQFIKHLNTEHALDDRSTAQCRVQMQVVQQLEIQLAKESERLQAMMAHLHMRPSEPKPFSQPVTVSADPFPDGLVHPPTSAAAPVTPLRPPGLGSASLHSGGPARRRSNDKFCSPISSELAQNHEFYKNADVRPPFTYASLIRQAILETPDRQLTLNEIYNWFTRMFAYFRRNTATWKNAVRHNLSLHKCFVRVENVKGAVWTVDEREYQKRRPPKMTGSPTLVKNMISGLSYGALNASYQAALAESSFPLLSNPGMLNPGSASSLLPLSQEDLGVPGEPLPSNGSSSPPRLSPPQYSHQIQVKEEPAEAEEDRRPGPPLGAPNPSTVGPPEDRDLEEDLGGEDMPSQPCPLIPGWKPSLLHLSYCVKPKFTVSVGSKTPSSPLPPPPRVQGSYSLPPCSYLAYGDMRGQNPAPSPGLLSGVGGGLFRCLHRTKSPSLPGVWILAAELETMRFHRPPMGDPQPKTADWV | binds |
